Consider 23 targets from the supplement of paper PMC10849652.

Protein sequences, listed by entry. Tags and fused reporters are not part of them. Lines headed by an entry give the natural chain unless they say otherwise; changes in a name come on top.
UniProt Q6UWJ1: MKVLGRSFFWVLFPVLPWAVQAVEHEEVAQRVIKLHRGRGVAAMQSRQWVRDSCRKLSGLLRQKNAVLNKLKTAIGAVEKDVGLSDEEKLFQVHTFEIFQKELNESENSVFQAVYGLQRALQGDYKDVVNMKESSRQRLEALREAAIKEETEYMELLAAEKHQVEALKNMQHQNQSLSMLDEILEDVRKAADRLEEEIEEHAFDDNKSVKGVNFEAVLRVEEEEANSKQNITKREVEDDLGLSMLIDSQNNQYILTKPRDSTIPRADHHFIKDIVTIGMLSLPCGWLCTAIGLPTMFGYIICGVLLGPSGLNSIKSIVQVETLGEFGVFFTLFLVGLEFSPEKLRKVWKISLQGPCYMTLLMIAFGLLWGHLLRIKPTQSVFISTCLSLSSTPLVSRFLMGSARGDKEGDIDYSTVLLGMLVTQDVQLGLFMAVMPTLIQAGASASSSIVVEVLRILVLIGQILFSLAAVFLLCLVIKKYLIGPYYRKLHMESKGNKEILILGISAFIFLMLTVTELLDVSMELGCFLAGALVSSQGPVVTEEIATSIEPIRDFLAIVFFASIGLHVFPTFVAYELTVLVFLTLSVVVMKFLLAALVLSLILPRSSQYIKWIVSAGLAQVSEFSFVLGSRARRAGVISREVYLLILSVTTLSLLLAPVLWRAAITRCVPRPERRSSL
UniProt Q9NX00: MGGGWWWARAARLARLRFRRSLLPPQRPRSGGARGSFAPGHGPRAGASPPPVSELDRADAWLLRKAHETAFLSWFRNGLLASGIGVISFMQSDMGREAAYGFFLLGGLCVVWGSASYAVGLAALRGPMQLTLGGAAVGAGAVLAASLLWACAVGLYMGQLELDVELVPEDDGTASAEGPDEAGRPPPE
UniProt O43615: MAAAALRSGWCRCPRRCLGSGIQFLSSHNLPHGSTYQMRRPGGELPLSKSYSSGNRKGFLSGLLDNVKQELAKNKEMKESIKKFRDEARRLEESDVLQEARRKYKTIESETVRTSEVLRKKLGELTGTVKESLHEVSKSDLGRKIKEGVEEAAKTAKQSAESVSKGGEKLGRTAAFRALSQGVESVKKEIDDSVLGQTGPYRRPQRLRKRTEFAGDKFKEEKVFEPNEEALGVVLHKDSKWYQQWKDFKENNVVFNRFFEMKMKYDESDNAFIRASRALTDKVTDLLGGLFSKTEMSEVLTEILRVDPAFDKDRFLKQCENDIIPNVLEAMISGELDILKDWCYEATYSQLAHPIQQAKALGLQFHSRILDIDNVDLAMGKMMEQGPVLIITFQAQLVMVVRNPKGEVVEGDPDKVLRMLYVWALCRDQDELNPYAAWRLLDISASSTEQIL
UniProt O00142: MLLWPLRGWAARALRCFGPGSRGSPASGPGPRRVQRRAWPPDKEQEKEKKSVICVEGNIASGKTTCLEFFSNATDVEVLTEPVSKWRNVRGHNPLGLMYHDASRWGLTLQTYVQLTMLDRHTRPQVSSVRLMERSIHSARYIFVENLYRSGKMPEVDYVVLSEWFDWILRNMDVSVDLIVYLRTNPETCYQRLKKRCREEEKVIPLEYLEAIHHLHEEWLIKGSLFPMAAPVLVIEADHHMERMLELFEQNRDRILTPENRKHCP
UniProt Q9Y5L4: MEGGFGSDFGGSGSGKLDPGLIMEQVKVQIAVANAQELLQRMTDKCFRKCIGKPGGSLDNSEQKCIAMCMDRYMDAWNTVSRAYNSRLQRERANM
UniProt Q9Y5J6: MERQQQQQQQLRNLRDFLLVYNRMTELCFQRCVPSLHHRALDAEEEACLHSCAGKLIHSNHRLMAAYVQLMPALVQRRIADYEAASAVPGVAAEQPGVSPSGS
UniProt Q9NS93: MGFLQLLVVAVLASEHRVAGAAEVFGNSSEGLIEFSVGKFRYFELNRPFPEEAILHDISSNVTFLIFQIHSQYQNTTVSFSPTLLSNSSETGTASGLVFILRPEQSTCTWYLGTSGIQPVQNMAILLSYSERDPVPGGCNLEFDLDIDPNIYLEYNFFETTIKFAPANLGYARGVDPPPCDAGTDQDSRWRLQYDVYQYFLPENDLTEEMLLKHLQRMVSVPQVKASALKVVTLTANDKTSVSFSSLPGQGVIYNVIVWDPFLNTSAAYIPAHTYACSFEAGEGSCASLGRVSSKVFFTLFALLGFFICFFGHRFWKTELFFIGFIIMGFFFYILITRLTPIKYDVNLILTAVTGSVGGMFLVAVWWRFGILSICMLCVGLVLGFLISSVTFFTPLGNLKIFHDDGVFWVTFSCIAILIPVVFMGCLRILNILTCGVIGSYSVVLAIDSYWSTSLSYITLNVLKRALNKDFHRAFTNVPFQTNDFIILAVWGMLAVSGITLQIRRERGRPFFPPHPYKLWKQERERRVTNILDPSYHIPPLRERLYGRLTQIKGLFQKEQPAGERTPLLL
UniProt Q13445: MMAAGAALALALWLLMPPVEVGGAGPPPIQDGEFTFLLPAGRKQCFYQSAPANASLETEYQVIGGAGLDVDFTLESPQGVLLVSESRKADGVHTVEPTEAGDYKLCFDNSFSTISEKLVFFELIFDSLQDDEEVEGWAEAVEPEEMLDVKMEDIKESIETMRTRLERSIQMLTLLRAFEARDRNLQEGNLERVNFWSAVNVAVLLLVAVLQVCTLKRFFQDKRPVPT
UniProt Q8N131: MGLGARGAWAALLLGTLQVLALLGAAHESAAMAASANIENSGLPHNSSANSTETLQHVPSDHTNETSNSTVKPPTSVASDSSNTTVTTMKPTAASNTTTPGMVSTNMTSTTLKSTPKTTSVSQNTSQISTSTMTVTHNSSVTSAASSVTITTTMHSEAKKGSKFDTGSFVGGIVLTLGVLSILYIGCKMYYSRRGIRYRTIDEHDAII
UniProt Q9BVV7: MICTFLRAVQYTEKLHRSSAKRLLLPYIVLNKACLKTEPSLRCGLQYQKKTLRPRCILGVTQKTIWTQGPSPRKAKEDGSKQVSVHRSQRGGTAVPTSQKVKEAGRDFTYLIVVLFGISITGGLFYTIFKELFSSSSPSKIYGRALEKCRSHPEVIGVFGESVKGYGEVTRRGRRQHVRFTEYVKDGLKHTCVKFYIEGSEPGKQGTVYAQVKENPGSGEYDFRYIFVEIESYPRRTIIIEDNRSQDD
UniProt Q9BZW5, whole entry, looked up: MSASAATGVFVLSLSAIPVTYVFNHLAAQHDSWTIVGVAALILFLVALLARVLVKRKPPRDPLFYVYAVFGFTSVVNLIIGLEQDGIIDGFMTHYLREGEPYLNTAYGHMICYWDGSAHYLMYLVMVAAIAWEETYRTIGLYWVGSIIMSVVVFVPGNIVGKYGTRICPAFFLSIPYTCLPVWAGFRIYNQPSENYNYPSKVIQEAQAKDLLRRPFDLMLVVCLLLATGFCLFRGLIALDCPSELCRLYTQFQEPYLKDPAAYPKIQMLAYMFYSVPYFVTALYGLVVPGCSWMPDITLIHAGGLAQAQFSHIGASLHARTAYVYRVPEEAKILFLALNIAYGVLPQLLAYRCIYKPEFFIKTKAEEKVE
UniProt Q96EK4, whole entry, looked up: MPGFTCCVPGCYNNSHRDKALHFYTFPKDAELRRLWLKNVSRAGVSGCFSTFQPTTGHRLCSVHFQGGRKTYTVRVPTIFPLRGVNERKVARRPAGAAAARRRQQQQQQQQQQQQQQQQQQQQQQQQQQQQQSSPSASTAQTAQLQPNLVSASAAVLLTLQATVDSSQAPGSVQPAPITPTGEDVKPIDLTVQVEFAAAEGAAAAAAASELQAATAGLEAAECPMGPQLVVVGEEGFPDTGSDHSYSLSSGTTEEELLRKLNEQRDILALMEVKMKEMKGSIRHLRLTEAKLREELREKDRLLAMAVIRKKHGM
UniProt Q6I9Y2: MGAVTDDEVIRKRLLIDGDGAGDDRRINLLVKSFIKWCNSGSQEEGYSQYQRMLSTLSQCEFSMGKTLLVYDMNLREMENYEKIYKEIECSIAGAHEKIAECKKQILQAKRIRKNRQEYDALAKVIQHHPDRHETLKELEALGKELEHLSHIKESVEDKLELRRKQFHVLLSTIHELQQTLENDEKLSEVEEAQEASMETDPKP
UniProt Q3LXA3: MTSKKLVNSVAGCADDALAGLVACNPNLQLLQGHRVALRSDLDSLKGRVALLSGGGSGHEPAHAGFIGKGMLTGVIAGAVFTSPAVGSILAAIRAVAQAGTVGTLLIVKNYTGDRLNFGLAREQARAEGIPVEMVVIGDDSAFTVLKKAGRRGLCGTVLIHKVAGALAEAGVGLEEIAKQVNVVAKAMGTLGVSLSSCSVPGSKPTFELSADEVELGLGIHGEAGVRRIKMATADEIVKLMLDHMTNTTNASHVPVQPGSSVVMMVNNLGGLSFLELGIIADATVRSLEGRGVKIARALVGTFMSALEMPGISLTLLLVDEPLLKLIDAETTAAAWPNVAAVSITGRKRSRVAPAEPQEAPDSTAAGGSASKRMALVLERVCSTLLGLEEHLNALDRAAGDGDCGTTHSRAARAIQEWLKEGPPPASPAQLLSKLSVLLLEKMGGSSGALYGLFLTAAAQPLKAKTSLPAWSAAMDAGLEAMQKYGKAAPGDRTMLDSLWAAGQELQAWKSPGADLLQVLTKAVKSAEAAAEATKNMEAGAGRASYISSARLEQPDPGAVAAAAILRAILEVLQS
UniProt Q9P2C4: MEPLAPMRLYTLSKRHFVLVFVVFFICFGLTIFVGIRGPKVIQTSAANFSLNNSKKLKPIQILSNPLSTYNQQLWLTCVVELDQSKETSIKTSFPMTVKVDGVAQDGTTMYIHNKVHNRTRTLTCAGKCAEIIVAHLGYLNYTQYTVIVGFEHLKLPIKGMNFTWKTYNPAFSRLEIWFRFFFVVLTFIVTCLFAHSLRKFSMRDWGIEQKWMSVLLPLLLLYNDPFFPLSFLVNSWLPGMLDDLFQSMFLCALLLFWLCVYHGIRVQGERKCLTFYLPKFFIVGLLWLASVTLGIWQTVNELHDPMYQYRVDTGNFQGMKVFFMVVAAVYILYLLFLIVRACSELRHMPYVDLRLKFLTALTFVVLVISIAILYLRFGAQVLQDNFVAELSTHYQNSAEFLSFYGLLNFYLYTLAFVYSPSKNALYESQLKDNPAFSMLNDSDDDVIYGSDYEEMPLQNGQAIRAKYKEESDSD
UniProt P04183: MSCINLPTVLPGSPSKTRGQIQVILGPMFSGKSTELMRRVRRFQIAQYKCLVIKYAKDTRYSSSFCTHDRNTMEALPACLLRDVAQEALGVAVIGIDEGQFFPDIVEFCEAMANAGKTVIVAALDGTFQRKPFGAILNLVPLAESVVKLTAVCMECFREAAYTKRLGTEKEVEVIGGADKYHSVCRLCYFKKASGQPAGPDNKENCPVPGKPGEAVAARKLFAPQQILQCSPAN
UniProt Q8TBQ9: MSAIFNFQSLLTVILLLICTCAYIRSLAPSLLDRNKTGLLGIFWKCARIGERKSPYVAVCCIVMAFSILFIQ
UniProt Q8NE00: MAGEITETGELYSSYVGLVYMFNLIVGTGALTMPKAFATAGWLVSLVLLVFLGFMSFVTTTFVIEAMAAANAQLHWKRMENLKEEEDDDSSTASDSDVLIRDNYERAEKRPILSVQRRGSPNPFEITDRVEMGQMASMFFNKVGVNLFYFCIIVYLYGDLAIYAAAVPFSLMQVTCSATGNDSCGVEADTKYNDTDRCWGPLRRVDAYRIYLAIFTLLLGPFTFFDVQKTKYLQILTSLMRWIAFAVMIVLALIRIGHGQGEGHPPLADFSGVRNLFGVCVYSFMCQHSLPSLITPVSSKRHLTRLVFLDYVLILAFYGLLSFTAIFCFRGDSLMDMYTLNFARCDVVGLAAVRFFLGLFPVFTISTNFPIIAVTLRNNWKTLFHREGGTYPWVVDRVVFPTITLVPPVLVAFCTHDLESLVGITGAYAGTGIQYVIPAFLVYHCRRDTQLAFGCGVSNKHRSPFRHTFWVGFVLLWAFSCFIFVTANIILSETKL
UniProt Q9P0S9: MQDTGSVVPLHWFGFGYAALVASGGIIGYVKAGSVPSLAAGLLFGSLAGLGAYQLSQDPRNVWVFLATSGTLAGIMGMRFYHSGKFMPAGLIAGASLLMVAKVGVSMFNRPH
UniProt Q8NDZ6: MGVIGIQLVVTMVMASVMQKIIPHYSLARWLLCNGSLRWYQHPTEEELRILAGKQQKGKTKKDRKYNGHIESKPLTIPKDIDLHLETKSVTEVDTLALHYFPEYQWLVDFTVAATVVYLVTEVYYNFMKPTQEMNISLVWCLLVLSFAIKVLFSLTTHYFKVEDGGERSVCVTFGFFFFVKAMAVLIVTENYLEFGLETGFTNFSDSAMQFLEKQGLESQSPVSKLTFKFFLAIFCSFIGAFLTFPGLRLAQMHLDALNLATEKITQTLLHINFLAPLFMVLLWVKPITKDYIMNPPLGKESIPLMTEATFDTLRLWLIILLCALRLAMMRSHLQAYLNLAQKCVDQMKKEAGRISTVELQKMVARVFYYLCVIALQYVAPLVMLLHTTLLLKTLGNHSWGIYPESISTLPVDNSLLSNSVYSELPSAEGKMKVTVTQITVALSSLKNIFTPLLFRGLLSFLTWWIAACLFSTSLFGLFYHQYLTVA

Some of the results follow.

Compound in the assay: CCN(CCCOc1ccc2c(Nc3cc(CC(=O)Nc4cccc(F)c4)[nH]n3)ncnc2c1)CCOP(=O)(O)O [barasertib]
The assay can be described thus: log2 fold change, soluble protein after heating vs DMSO (PISA); higher = thermal stabilisation; K562 lysate, 10 uM; active = over 0.2 and 3.5 SD of the protein, either way, in both replicates (recomputed). Summed up: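 The values are log-two fold changes in thermal stability compared with solvent controls and come from duplicates. They were obtained by TMTpro 16plex LC-MS/MS, with channel sums equalised, on the supernatant after 21,000xg for 90 min. That supernatant came from crude K562 extract at 1 mg/mL protein treated with 10 μM compound for 30 min, heated for 3 min across 48°C-58°C, pooled and brought to 0.5% NP-40 at 4°C.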
Turning to TMCO3 (UniProt Q6UWJ1), the log2 fold change is inactive: 0.028. TMEM160 (UniProt Q9NX00): the log2 fold change is inactive: 0.038. Consider TIMM44 (UniProt O43615), for which the log2 fold change was inactive: 0.07.

Take TK2 isoform 6 (UniProt O00142): the log2 fold change is inactive: 0.053.

In the case of TK1 (UniProt K7ERV3), the log2 fold change was inactive: 0.072. With THAP9 (UniProt Q9H5L6) the figure was inactive: 0.117.

On to TIMM13 (UniProt Q9Y5L4), for which the log2 fold change is inactive: 0.011.

With TIMM10B (UniProt Q9Y5J6), the log2 fold change was inactive: 0.099. With TM7SF3 (UniProt Q9NS93) the figure was inactive: 0.143; with TMED1 (UniProt Q13445), inactive: -0.086; with TMEM123 (UniProt Q8N131), inactive: -0.058. In the case of TIMM21 (UniProt Q9BVV7), the log2 fold change is inactive: 0.033. For the target TM6SF1 (UniProt Q9BZW5), the log2 fold change is inactive: 0.056. Turning to THAP11 (UniProt Q96EK4), the log2 fold change was inactive: 0.009. THOC7 (UniProt Q6I9Y2): the log2 fold change was inactive: 0.037. With TKFC (UniProt Q3LXA3), the log2 fold change is inactive: -0.026. On to TMEM181 (UniProt Q9P2C4), for which the log2 fold change was inactive: 0.037. For TK1 (UniProt P04183), the log2 fold change is inactive: -0.007. As to TMEM167A (UniProt Q8TBQ9), the log2 fold change is inactive: 0.011. Regarding TMEM104 (UniProt Q8NE00), the log2 fold change is inactive: 0.076.

On to TMEM14C (UniProt Q9P0S9), for which the log2 fold change was inactive: -0.038. In the case of TJP1 (UniProt G3V1L9), the log2 fold change was inactive: -0.034. Take TMEM161B (UniProt Q8NDZ6): the log2 fold change is inactive: 0.076.
